Reference: the supplement of paper PMC7830784
Structures can show the parent of a compound that is named as a salt. The list shows a part of the results. Most values lie within the scatter of the assay; repeated measurements hardly agree.

Tested on: Brugia pahangi adult female
Assay: motility inhibition on day 3 relative to DMSO vehicle; higher = more active
Conditions: 10 µM; 3 days

Row | Compound | motility inhibition on day 3
1 | C[N+](C)(C)CCOC(N)=O [Carbachol] | 6.1%
2 | CC(C)(C)NC[C@H](O)COc1cccc2c1CCCC2=O [levobunolol hydrochloride] | 5.47%
3 | COC(=O)/C=C/C(=O)OC [dimethyl fumarate] | 15.8%
4 | OC[C@H]1O[C@@H](O[C@H]2[C@H](O)[C@@H](O)C(O)O[C@@H]2CO)[C@H](O)[C@@H](O)[C@H]1O (stereo partly specified) [lactose monohydrate] | 31.5%
5 | O=C(NC(Cc1cc(=O)[nH]c2ccccc12)C(=O)O)c1ccc(Cl)cc1 (stereo unspecified) [rebamipide] | 5.69%
6 | COc1ccc(C[C@@H](C)NC[C@H](O)c2ccc(O)c(NC=O)c2)cc1 [Arformoterol Tartrate] | 20.5%
7 | CCCCC(=O)N(Cc1ccc(-c2ccccc2-c2nnn[nH]2)cc1)[C@H](C(=O)O)C(C)C [valsartan] | < 0%
8 | OC(CCN1CCCCC1)(c1ccccc1)c1ccccc1 [pridinol methanesulfonate] | 10.2%
9 | CCN(CC)CCNC(=O)c1cc(Br)c(N)cc1OC [bromopride] | 36.4%
10 | CCOC(N)=O [urethane] | 34.7%
11 | O=C1c2cccc(O)c2C(=O)c2c(O)cccc21 [dantron] | 38.3%
12 | CSCC[C@H](NC(=O)[C@H](Cc1c[nH]c2ccccc12)NC(=O)CCNC(=O)OC(C)(C)C)C(=O)N[C@@H](CC(=O)O)C(=O)N[C@@H](Cc1ccccc1)C(N)=O [pentagastrin] | 14.6%
13 | CC(C)NNC(=O)c1ccncc1 [Iproniazid phosphate] | < 0%
14 | Clc1ccc(C(c2ccccc2Cl)C(Cl)Cl)cc1 (stereo unspecified) [mitotane] | 28.7%
15 | O=C1O[C@H]([C@@H](O)CO)C(O)=C1O [ascorbic acid] | 13.4%
16 | CC(=O)Nc1ccc(S(=O)(=O)c2ccc(NC(C)=O)cc2)cc1 [acedapsone] | 13.4%
17 | O=C(O)c1ccccc1Nc1cccc(C(F)(F)F)c1 [flufenamic acid] | 3.12%
18 | OCCc1ccccc1 [phenylethyl alcohol] | 24.9%
19 | Nc1ccc(C(=O)O)c(O)c1 [sodium p-aminosalicylate] | 0.793%
20 | O=C1Nc2ccc(Cl)cc2[C@@](C#CC2CC2)(C(F)(F)F)O1 | 3.27%
21 | Nc1nc(/C(=C/CC(=O)O)C(=O)N[C@@H]2C(=O)N3C(C(=O)O)=CCS[C@H]23)cs1 [ceftibuten] | 12.3%
22 | CCC(=O)O[C@]1(C(=O)SCF)[C@H](C)C[C@H]2[C@@H]3C[C@H](F)C4=CC(=O)C=C[C@]4(C)[C@@]3(F)[C@@H](O)C[C@@]21C [fluticasone propionate] | < 0%
23 | CCC(=O)O[C@]1(C(=O)SCF)[C@H](C)C[C@H]2[C@@H]3C[C@H](F)C4=CC(=O)C=C[C@]4(C)[C@@]3(F)[C@@H](O)C[C@@]21C | 30.4%
24 | Nc1ccc(/N=N/c2ccccc2)c(N)n1 [phenazopyridine hydrochloride] | 2.95%
25 | C[C@H](N[C@@H](CCc1ccccc1)C(=O)O)C(=O)N1Cc2ccccc2C[C@H]1C(=O)O [quinaprilat] | 12.3%
26 | CN(C)CCOC(=O)C(c1ccccc1)C1(O)CCCC1 (stereo unspecified) [cyclopentolate hydrochloride] | < 0%

Some of the entries above, reformatted.
Nc1ccc(/N=N/c2ccccc2)c(N)n1 [phenazopyridine hydrochloride]
  motility inhibition on day 3: 2.95%
C[C@H](N[C@@H](CCc1ccccc1)C(=O)O)C(=O)N1Cc2ccccc2C[C@H]1C(=O)O [quinaprilat]
  motility inhibition on day 3: 12.3%
CN(C)CCOC(=O)C(c1ccccc1)C1(O)CCCC1 (stereo unspecified) [cyclopentolate hydrochloride]
  motility inhibition on day 3: < 0%

Additional results:

Row | Compound | motility inhibition on day 3
27 | CC(NCCc1ccc(O)cc1)C(O)c1ccc(O)cc1 (stereo unspecified) [ritodrine hydrochloride] | 14.3%
28 | CCC1(C)CC(=O)NC1=O (stereo unspecified) [ethosuximide] | < 0%
29 | NC1CCN(c2c(F)cc3c(=O)c(C(=O)O)cn(C4CC4)c3c2Cl)C1 (stereo unspecified) [clinafoxacin hydrochloride] | 9.93%
30 | CC(=O)Nc1ccc(OC(C)=O)cc1 [diacetamate] | 4.31%
31 | CCCNC(C)(C)COC(=O)c1ccccc1 [meprylcaine hydrochloride] | 3.08%
32 | O=S(=O)(c1cccc2cnccc12)N1CCCNCC1 [fasudil hydrochloride] | 0.676%
33 | CCc1nn(CCCN2CCN(c3cccc(Cl)c3)CC2)c(=O)n1CCOc1ccccc1 [nefazodone hydrochloride] | 28%
34 | CC(=O)Oc1ccc(C(c2ccc(OC(C)=O)cc2)c2ccccn2)cc1 [bisacodyl] | < 0%
35 | CCOC(=O)CC(=O)N1CCSC1COc1ccccc1OC (stereo unspecified) [moguisteine] | 6%
36 | C[C@@H]1CN(c2c(F)c(F)c3c(=O)c(C(=O)O)cn(C4CC4)c3c2F)C[C@H](C)N1 [orbifloxacin] | 2.17%
37 | CCC(C)(C)C(=O)O[C@H]1C[C@@H](C)C=C2C=C[C@H](C)[C@H](CC[C@@H]3C[C@@H](O)CC(=O)O3)[C@H]21 [simvastatin] | 1.22%
38 | CCCc1nn(C)c2c(=O)[nH]c(-c3cc(S(=O)(=O)N4CCN(C)CC4)ccc3OCC)nc12 [sildenafil] | 0.685%
39 | NNC(=O)c1ccncc1.Nc1ccc(C(=O)O)c(O)c1 [pasiniazid] | 13.3%
40 | CC(O)(CC(=O)O)CC(=O)O [meglutol] | 33%
41 | O=[N+]([O-])c1ccc(O)c2ncccc12 [nitroxoline] | 75.1%
42 | O=C(O[C@@H]1C[C@@H]2C[C@H]3C[C@H](C1)N2CC3=O)c1c[nH]c2ccccc12 [Dolasetron] | 11%
43 | COc1ccc2cc1Oc1ccc(cc1)C[C@H]1c3c(cc4c(c3Oc3cc5c(cc3OC)CCN(C)[C@@H]5C2)OCO4)CCN1C [cepharanthine] | 0.433%
44 | CC(O)CC(C)(C)O (stereo unspecified) [hexylene glycol] | 18.5%
45 | CCOC(=O)c1ccc(O)cc1 [ethyl paraben] | 6.94%
46 | Cn1c(=O)c2c(ncn2C)n(C)c1=O [Caffeine] | 24.2%
47 | O=C([O-])C(O)[C@H](O)[C@@H](O)[C@H](O)[C@H](O)CO.O=C([O-])C(O)[C@H](O)[C@@H](O)[C@H](O)[C@H](O)CO.[Ca+2] (stereo partly specified) [calcium gluceptate] | 4.21%
48 | Cc1c(OCC(F)(F)F)ccnc1C[S+]([O-])c1nc2ccccc2[nH]1 (stereo unspecified) [lansoprazole] | 35.5%
49 | CC(C)(C)NCC(O)c1ccc(O)c(CO)c1 (stereo unspecified) [Albuterol hemisulfate] | 10.1%
50 | Cc1onc(-c2ccccc2)c1C(=O)N[C@@H]1C(=O)N2[C@@H]1SC(C)(C)[C@@H]2C(=O)O [oxacillin sodium] | < 0%
51 | CCCC(CCC)C(=O)O [Valproic acid sodium] | 13.2%
